The target of test [1] is T1, KRP4 (Kip-Related Protein 4), yeast construct (rice (Oryza sativa)) (UniProt Q7XDH8).
T1 sequence: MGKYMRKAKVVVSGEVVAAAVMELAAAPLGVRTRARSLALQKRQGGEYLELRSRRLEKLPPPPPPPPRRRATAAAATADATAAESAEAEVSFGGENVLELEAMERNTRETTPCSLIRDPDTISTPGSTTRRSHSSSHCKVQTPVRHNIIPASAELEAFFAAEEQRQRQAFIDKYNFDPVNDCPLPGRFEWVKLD
Put plainly: two-hybrid.

Amino acid sequences for entries named in this document (tags omitted).
UniProt P29618: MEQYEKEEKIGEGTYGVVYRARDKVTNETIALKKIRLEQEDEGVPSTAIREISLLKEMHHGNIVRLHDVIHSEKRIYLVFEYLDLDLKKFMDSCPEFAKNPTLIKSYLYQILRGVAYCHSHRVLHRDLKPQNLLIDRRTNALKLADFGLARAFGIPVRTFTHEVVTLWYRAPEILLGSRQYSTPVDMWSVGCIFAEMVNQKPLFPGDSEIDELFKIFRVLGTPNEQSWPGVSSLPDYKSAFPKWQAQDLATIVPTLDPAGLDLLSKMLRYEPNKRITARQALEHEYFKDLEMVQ
UniProt P29619: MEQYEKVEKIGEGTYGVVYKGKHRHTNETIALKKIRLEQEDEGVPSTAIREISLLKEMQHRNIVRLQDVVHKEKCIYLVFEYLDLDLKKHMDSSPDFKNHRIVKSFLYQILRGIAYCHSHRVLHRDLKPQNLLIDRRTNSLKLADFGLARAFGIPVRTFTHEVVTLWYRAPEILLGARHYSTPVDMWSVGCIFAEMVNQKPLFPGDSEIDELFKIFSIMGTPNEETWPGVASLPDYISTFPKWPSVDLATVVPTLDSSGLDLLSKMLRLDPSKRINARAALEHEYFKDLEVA
UniProt Q8L4P8: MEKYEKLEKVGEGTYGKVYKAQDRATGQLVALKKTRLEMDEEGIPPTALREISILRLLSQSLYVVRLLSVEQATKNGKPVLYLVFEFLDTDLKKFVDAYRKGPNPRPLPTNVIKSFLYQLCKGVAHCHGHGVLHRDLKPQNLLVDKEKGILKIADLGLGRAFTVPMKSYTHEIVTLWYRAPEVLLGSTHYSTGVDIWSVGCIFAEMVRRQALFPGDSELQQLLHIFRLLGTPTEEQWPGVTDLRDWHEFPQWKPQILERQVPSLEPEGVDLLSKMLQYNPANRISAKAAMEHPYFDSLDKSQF
UniProt Q336M2: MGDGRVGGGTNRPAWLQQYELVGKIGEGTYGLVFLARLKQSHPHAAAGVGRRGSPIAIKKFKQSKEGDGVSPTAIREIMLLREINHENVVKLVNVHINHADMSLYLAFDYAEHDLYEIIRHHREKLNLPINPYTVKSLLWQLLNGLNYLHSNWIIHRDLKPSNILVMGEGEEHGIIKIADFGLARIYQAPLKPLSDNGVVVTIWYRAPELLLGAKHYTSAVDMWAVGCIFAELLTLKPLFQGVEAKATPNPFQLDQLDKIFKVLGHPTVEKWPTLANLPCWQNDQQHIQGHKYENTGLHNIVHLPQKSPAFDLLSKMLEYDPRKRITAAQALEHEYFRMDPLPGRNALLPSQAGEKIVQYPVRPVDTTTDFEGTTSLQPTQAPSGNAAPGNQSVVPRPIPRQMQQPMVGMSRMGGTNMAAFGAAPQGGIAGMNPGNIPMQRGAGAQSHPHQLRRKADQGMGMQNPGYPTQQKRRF
UniProt Q6Z6G5: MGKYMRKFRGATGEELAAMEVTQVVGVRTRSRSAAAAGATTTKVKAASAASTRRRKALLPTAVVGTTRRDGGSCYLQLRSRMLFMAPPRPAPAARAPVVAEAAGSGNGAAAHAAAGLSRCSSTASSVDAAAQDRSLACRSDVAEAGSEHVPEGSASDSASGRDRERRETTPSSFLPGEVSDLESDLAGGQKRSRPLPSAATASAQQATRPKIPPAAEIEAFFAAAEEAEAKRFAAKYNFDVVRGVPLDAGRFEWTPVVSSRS
UniProt Q2QQS5: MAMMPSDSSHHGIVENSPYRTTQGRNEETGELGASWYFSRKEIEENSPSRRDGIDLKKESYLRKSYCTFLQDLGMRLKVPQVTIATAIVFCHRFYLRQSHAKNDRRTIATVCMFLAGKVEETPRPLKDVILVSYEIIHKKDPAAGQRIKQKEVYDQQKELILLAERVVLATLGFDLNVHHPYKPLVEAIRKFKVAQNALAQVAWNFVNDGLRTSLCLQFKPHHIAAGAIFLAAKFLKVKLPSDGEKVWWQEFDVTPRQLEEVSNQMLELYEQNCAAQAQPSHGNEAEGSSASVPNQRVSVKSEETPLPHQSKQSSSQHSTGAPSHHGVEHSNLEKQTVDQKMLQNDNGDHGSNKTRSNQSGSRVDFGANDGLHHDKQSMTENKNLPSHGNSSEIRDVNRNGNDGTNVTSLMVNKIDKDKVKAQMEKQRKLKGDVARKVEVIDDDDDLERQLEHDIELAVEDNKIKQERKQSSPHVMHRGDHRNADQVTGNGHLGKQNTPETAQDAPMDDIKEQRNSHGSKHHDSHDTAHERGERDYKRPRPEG
UniProt Q0D9C7: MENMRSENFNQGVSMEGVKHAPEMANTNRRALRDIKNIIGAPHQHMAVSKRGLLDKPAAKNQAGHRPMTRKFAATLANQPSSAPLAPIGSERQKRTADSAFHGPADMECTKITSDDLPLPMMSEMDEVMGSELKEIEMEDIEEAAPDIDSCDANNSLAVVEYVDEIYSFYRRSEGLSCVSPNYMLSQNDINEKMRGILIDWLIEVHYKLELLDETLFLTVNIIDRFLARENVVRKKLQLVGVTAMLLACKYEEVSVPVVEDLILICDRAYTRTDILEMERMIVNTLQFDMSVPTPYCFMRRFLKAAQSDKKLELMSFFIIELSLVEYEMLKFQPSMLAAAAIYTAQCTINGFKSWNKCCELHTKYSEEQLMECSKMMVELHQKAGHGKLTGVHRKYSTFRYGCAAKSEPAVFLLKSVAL
UniProt Q0JIF2: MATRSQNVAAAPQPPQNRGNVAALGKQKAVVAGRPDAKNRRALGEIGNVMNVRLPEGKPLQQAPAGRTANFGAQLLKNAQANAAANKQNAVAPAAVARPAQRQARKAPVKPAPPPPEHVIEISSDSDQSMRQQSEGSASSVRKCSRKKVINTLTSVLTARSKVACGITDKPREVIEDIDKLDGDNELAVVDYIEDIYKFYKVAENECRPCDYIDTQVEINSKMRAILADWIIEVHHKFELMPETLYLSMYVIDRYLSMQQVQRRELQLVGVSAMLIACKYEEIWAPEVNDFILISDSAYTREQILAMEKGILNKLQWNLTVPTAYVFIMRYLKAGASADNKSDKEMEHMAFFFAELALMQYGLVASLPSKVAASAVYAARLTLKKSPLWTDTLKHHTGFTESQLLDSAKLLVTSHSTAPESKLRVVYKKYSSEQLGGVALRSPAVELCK
UniProt Q75I54: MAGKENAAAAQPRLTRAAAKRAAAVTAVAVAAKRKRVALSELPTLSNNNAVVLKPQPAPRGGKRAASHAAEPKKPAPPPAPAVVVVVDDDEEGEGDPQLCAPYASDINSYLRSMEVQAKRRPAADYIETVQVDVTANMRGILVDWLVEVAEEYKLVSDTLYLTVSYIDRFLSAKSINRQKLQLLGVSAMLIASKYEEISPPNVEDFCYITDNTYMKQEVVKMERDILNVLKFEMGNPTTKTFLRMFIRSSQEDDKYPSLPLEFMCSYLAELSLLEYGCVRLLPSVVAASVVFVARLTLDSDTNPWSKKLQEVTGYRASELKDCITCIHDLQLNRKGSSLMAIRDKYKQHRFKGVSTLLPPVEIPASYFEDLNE

Test [2] has as its target KRP4m, C-terminally truncated KRP4 (rice (Oryza sativa)) (UniProt Q7XDH8). The experiment in a line: two-hybrid.
Test [3] addresses T2, KRP5 (Kip-Related Protein 5), yeast construct (rice (Oryza sativa)) (UniProt Q283L0).
T2 sequence: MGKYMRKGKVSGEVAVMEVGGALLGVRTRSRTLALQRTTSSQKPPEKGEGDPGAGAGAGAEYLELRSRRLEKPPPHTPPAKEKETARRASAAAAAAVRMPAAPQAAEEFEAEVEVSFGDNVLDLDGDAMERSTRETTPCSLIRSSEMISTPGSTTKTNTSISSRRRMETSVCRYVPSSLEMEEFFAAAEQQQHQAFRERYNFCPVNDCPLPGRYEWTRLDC
Put plainly: two-hybrid.

Test [4] deals with KRP5m, C-terminally truncated KRP5 (rice (Oryza sativa)) (UniProt Q283L0). Put plainly: two-hybrid.
The target of test [5] is T1, KRP4 (Kip-Related Protein 4), yeast construct (rice (Oryza sativa)). The experiment in a line: co-IP.
The target of test [6] is T2, KRP5 (Kip-Related Protein 5), yeast construct (rice (Oryza sativa)). Put plainly: co-IP.
Test [7] addresses CDKA1;1, yeast two-hybrid construct (rice (Oryza sativa)) (UniProt P29618). Put plainly: two-hybrid.
Test [8] has as its target CDKA2;1, yeast two-hybrid construct (rice (Oryza sativa)) (UniProt P29619). Put plainly: two-hybrid.
Test [9] concerns the target CDKB1;1, yeast construct (rice (Oryza sativa)) (UniProt Q8L4P8). Put plainly: two-hybrid.
Test [10] deals with CDKE1, yeast two-hybrid construct (rice (Oryza sativa)) (UniProt Q336M2). The experiment in a line: two-hybrid.
Test [11] has as its target KRP1, yeast two-hybrid bait (rice (Oryza sativa)) (UniProt Q6Z6G5). The experiment in a line: two-hybrid.
Test [12] concerns the target T3, KRP4-nEYFP (rice (Oryza sativa)) (UniProt Q7XDH8).
T3 sequence: T1 sequence
The experiment in a line: split reporter.

The target of test [13] is T4, KRP5-nEYFP (rice (Oryza sativa)) (UniProt Q283L0).
T4 sequence: T2 sequence
Put plainly: split reporter.

Test [14] concerns the target T5, CDKB2;1, yeast construct (rice (Oryza sativa)) (UniProt Q0J4I1).
T5 sequence: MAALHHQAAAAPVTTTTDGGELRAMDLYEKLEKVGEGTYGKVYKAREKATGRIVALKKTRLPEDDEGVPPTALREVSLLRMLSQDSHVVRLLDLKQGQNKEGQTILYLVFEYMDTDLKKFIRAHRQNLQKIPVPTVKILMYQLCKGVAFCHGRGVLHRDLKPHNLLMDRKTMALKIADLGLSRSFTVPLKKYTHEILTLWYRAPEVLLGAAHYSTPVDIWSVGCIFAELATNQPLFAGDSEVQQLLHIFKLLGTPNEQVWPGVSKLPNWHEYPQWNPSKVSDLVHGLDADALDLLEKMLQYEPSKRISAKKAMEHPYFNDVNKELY
Put plainly: two-hybrid.

Results are given in words; binding and its absence hold for the method and conditions named. For some of these results: Binding seen in cells or lysates may run through a third protein. Some binding calls cover weakened binding; strength is not graded here.

“CDKA2;1, yeast two-hybrid construct (from UniProt P29619 1-292) (enzyme)”: the binding entry was “binds” in test [1], “no binding” in test [2], “binds” in [3] and “no binding” in test [4].

As to “CDKB1;1, yeast construct (from UniProt Q8L4P8 1-303) (enzyme)”, the binding entry in test [5] is on record as “binds”; in test [6] it was “binds”; in test [1] it was “binds”; in test [2], “no binding”; in test [3] it was “binds”; in test [4], “no binding”.

With “CDKA1;1, yeast two-hybrid construct (from UniProt P29618 1-294) (enzyme)”, the binding result in test [1] is “binds”; in test [2], “no binding”; in test [3], “binds”; in test [4], “no binding”.

In the case of “CYCT1;4, yeast two-hybrid prey (from UniProt Q2QQS5 1-543)”, the binding entry in test [7] is given as “no binding”; in test [8] it was “binds”; in test [9] it was “no binding”; in test [10], “no binding”; in test [11] it was “no binding”; in test [1], “no binding”. For the same substance, the binding result in test [3] is reported as “binds weakly”.

“CDKB1-cEYFP (from UniProt Q8L4P8 1-303) (enzyme)”: the binding result in test [12] and in test [13] was “binds” in each case.

With “CYCB2;2, yeast two-hybrid prey (from UniProt Q0D9C7 1-419)”, the binding entry in [7] was “no binding”; in [8], “binds”; in [9], “no binding”; in test [14], “binds”; in test [10], “no binding”.

“CDKE1, yeast two-hybrid construct (from UniProt Q336M2 1-475) (enzyme)”: the binding entry is given as “no binding” in test [1], “no binding” in [2], “binds” in test [3] and “no binding” in [4].

Turning to “CYCB1;1, yeast two-hybrid prey (from UniProt Q0JIF2 1-449)”, the binding result in test [7] is reported as “no binding”; in test [9] it was “no binding”; in [14], “binds”; in test [10] it was “no binding”.

As for “CYCA3;1, yeast two-hybrid prey (from UniProt Q75I54 1-373)”, the binding entry is recorded as “no binding” in [7], “no binding” in [9], “binds” in test [14] and “no binding” in [10].

For the origin of these results see paper doi:10.1101/2022.07.12.499798.
